The list shows a part of the results.
Molecular target: T1, OsSMF1 (Oryza sativa, UniProt Q6ZLB0 1-436)
T1 sequence: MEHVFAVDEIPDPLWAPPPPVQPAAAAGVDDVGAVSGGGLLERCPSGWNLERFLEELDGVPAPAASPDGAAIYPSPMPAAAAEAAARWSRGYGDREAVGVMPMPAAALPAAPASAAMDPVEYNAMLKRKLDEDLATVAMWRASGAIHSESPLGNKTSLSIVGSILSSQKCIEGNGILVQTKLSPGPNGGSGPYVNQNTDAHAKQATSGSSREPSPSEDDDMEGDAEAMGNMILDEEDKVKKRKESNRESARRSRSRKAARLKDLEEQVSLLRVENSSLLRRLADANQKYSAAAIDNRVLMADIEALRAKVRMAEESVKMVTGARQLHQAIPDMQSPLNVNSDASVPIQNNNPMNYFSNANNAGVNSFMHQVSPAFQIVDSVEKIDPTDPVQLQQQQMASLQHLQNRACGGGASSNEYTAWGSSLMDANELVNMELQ
Assay: protein-binding microarray (RPBM); PBS, 2% BSA, 51.3 ng/ul salmon testes DNA, 50 uM zinc acetate, 200 nM TF, 25 C, 1 h; high values mean tight binding
Settings: protein: recombinant; tags: N-terminal polyhistidine and DsRed monomer fusion (pET32a); chain copies: 2; label: CyDye5-dUTP incorporated in the synthesized complementary strand; 3' TTTTT single-stranded linker to array surface; dsDNA, one strand shown
Method in brief: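 The binding signal is fluorescence intensity per array feature (arbitrary units). Readings came from an Axon 4000B scanner after a washed, 2% BSA-blocked, double-stranded custom Agilent array had been incubated for 1 h at 25 °C with 200 nM protein and 50 µM zinc acetate. The protein was a Ni–NTA-purified transcription factor fused N-terminally to polyhistidine and DsRed, expressed in E. coli BL21-CodonPlus.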

| Sequence | binding signal |
| --- | --- |
| GTATATATTAAGCCAATGGATGGTTGCCACTCCTTGGCACCGGAGTCACCTAGTGCAG | 3280 fluorescence intensity (a.u.) |
| CACACCATGCATCCGTCCGCATATACCCTGTCAACAATGTCGGAGTCACCTAGTGCAG | 3970 fluorescence intensity (a.u.) |
| GAGTTAAGTAATGTGACGTCTGACAGCGGAGGCTCGTGTACGGAGTCACCTAGTGCAG | 4540 fluorescence intensity (a.u.) |
| AGTTCGACTGCTAGTCACAGTCTATGAGGTTTGGGCGACCCGGAGTCACCTAGTGCAG | 3520 fluorescence intensity (a.u.) |
| AGATTATTACAATGTATAAGCCAGATTACTATAATCCAATCGGAGTCACCTAGTGCAG | 28600 fluorescence intensity (a.u.) |
| AAGCCAGGGGTCTCCTCGTCACGCTCGGCCTTGCGGTCTCCGGAGTCACCTAGTGCAG | 5120 fluorescence intensity (a.u.) |
| TACGCAGCACAAAGGGAAGGAGCTGGCATCGAACAGGCGCCGGAGTCACCTAGTGCAG | 3470 fluorescence intensity (a.u.) |
| GCCAACCCGCTGGCCCGCCGCCACGCGCGCGTCCCCGTCGCGGAGTCACCTAGTGCAG | 5080 fluorescence intensity (a.u.) |
| CCTCCCCACGCGCGCCGCCTTGCCCACCACCTCCAATCGTCGGAGTCACCTAGTGCAG | 9460 fluorescence intensity (a.u.) |
| CATCAATGACGTTACACAAACTCTGTCATTCCAACTGGAACGGAGTCACCTAGTGCAG | 4460 fluorescence intensity (a.u.) |
| TCCATCATCTTAAATCAGGGATTCTCTATATATTCAACTGCGGAGTCACCTAGTGCAG | 15300 fluorescence intensity (a.u.) |
| GAACATTTGAGCTTTCTCACTCACTCATCACCATGGCCTTCGGAGTCACCTAGTGCAG | 3310 fluorescence intensity (a.u.) |
| TATCTCGATGCAGTAATGATCGATGCACGGCGCGCGTTATCGGAGTCACCTAGTGCAG | 3380 fluorescence intensity (a.u.) |
| GCGCGAGCGTGGATCAAGGCGGGAGGCACATGAATCATAGCGGAGTCACCTAGTGCAG | 3560 fluorescence intensity (a.u.) |
| TTATTCCATCAGGAAACCGATCTCCCAGTGGGCCGCGCCCCGGAGTCACCTAGTGCAG | 3320 fluorescence intensity (a.u.) |
| CGATGCTTAAAGTAAACCAAGCAATCACCACGTAAATCGACGGAGTCACCTAGTGCAG | 3360 fluorescence intensity (a.u.) |
| TGCTTGGCACCATCATTAACACGCCATACTTAACGCTGATCGGAGTCACCTAGTGCAG | 4790 fluorescence intensity (a.u.) |
| GCCGTCCTTGTAGCCGACGGGGCAAAACATGCAAATTGACCGGAGTCACCTAGTGCAG | 3300 fluorescence intensity (a.u.) |
| ATGGTGAAATTATAGGTGCATCGTTCTATCCACTATAGGGCGGAGTCACCTAGTGCAG | 5810 fluorescence intensity (a.u.) |
| AAATCAACTCTTTATGTGTCGCCAATTCAGGCGGAACTTGCGGAGTCACCTAGTGCAG | 3520 fluorescence intensity (a.u.) |
| GGCCCTGCACCCACGTTGGATCCGTCCCTGCAGTCACCTTCGGAGTCACCTAGTGCAG | 4190 fluorescence intensity (a.u.) |

| Sequence | binding signal |
| --- | --- |
| CGGCACCGTCGCGGCAGTCCGTTGCTGCCGCTGGCCGCCGCGGAGTCACCTAGTGCAG | 3320 fluorescence intensity (a.u.) |
| GATGCGTTCTTCCAGAGGTGTCATTCGCCATTCCGTGTGGCGGAGTCACCTAGTGCAG | 4720 fluorescence intensity (a.u.) |
| GGAGGAGGTGGCGGCGGAGGGGTTGGTGGTGGAGGTGGTCCGGAGTCACCTAGTGCAG | 8220 fluorescence intensity (a.u.) |
| TCGTCGCACGACCAGACCAGCAGCACCAACTCCCTTTCTGCGGAGTCACCTAGTGCAG | 3160 fluorescence intensity (a.u.) |
| TAGTTTGATTCTCGTGACACATAGGGCGACCTAAGCTTATCGGAGTCACCTAGTGCAG | 3660 fluorescence intensity (a.u.) |
| ATCTTGGATGGGATAACAAGTACTTTAACTGAGGCCGAGTCGGAGTCACCTAGTGCAG | 21700 fluorescence intensity (a.u.) |
| TTCGATCATTTCGTACTGTACGTGGCACATCATGTGTCATCGGAGTCACCTAGTGCAG | 12300 fluorescence intensity (a.u.) |
| CTTTCTCTGTTGATCTTCTCGTGGTGGGTGACTGTGTCAACGGAGTCACCTAGTGCAG | 5210 fluorescence intensity (a.u.) |
| GTCTGTTGCTGTGTTGGACAAGTTTTGTCTGAAAATCGCCCGGAGTCACCTAGTGCAG | 3250 fluorescence intensity (a.u.) |
| TTTAGTCCCGGTTGGTGTTACCAACCGGGACTAAAGATCCCGGAGTCACCTAGTGCAG | 23300 fluorescence intensity (a.u.) |
| CCGGTATCCACTGCGTGCGTGCGTTGCCTGCTAGAATCCCCGGAGTCACCTAGTGCAG | 3820 fluorescence intensity (a.u.) |
| TATTTGTTCGTGACTCTACACTTCTTTTGCCTATTCATCTCGGAGTCACCTAGTGCAG | 4670 fluorescence intensity (a.u.) |
| TCCGTATGAAATAGTGTCTCCGTCAGATTGGGGAAGCGGGCGGAGTCACCTAGTGCAG | 3200 fluorescence intensity (a.u.) |
| GCTGCTAGTAGGCTAATTTCTGCAGTGTGTGTGTGTGTGTCGGAGTCACCTAGTGCAG | 3970 fluorescence intensity (a.u.) |
| ACAACTCACATGGGACATGGCATGTCCTCTCAAACCTTTACGGAGTCACCTAGTGCAG | 4890 fluorescence intensity (a.u.) |
| AGAGGAGAGCCCTCAGCCTCTCCGTCACCCTCATCCTTGTCGGAGTCACCTAGTGCAG | 3430 fluorescence intensity (a.u.) |
| CGTCGTGGAACCACCCGTCGCCCACGTAGGACACGCCCCTCGGAGTCACCTAGTGCAG | 6530 fluorescence intensity (a.u.) |
| ATCCTTTTGCTTATGGTTATGCTTATCTGTATGGCTTATTCGGAGTCACCTAGTGCAG | 3650 fluorescence intensity (a.u.) |
| CGAAAGGTTTCCAGGTACAAGCAACCATAGAGCCAAATCGCGGAGTCACCTAGTGCAG | 38300 fluorescence intensity (a.u.) |
| AAGAGATACACTTTCAAACCATGACGCTATTTTACCTCACCGGAGTCACCTAGTGCAG | 3660 fluorescence intensity (a.u.) |
| GCACCTCATGCAGGGACGACATGGACACGTCACCACTTGACGGAGTCACCTAGTGCAG | 24600 fluorescence intensity (a.u.) |

Some of the entries so far, as tab-separated lines:
Sequence	binding signal
GATGCGTTCTTCCAGAGGTGTCATTCGCCATTCCGTGTGGCGGAGTCACCTAGTGCAG	4720 fluorescence intensity (a.u.)
TTCGATCATTTCGTACTGTACGTGGCACATCATGTGTCATCGGAGTCACCTAGTGCAG	12300 fluorescence intensity (a.u.)
GCTGCTAGTAGGCTAATTTCTGCAGTGTGTGTGTGTGTGTCGGAGTCACCTAGTGCAG	3970 fluorescence intensity (a.u.)
